The source of these data is publication PMC5021326.

The chains behind the UniProt entries cited, without tags or fusion partners. Where a name states a change or a piece, a line headed by the entry shows the natural chain unless it says otherwise. A line that says so, or that is headed by a name, gives the form on record, which may keep a tag or linker.
UniProt Q60960: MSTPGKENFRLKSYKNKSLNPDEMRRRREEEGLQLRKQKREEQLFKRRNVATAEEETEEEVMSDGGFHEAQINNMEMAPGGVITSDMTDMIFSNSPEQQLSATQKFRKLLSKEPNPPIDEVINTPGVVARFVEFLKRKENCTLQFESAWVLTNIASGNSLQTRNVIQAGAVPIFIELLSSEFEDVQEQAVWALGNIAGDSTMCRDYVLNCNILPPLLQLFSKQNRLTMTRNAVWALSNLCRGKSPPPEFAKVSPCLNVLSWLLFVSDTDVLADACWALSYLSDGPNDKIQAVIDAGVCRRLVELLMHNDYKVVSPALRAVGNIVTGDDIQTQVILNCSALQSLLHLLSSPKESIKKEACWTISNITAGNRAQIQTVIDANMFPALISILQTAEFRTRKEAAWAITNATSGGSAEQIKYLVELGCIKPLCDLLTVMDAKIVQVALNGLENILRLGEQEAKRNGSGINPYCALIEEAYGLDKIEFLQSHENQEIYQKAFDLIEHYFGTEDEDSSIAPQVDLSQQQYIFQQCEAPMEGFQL
UniProt Q8BVK9: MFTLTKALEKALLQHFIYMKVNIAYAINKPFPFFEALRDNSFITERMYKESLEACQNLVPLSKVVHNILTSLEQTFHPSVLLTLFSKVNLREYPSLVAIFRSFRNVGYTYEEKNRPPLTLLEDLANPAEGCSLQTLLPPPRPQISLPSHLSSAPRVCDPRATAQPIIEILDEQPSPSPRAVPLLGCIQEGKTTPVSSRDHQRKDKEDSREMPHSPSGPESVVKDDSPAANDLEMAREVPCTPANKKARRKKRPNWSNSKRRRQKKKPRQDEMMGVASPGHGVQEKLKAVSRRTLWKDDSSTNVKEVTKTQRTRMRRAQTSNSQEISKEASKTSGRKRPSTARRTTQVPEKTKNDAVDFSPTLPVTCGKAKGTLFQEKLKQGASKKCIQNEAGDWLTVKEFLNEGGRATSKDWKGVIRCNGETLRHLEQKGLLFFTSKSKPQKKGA
HA-tagged Ipr1 ΔcNLS1/2-R424A-K429A mutant (Q8BVK9, form named): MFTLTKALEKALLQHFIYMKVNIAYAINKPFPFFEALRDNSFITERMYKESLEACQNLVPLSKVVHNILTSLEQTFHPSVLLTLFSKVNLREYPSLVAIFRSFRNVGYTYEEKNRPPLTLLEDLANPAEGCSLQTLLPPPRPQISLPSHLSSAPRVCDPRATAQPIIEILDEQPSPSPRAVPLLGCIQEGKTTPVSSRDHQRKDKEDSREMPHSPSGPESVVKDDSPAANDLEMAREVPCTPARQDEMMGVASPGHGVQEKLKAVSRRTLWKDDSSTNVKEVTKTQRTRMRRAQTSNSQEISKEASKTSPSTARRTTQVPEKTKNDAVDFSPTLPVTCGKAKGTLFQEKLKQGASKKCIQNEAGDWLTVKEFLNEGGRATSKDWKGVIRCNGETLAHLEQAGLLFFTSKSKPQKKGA
HA-tagged Ipr1-ΔcNLS1/2 mutant (Q8BVK9, form named): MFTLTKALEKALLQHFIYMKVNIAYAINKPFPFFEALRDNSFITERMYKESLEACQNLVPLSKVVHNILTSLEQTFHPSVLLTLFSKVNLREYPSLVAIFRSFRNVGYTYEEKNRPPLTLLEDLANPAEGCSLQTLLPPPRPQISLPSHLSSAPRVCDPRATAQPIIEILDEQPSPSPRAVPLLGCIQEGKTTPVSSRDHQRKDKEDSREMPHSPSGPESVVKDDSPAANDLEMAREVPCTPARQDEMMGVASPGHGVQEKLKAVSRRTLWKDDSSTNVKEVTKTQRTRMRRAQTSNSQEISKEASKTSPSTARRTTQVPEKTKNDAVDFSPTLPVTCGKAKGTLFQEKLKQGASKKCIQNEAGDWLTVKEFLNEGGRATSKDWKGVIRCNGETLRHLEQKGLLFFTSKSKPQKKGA

Results are given in words; binding and its absence hold for the method and conditions named. Binding seen in cells or lysates may run through a third protein. Some results given as binding are weak or reduced against the parent protein; the word gives no strength.

The target of assay [1] is FLAG-tagged NPI-1 (importin-α5) (mouse (cDNA of RAW264.7 cells)) (UniProt Q60960). The assay can be described thus: co-IP; lysates of co-transfected 293FT cells; Co-IP Kit (Pierce); immunoprecipitated with anti-FLAG antibody, western blot with anti-HA antibody. (In general: Immunoblotting shows a protein as a band on a membrane.)
Assay [2] concerns the target FLAG-tagged full-length Ipr1 (mouse intracellular pathogen resistance 1) (mouse) (UniProt Q8BVK9). Described as above.

With “HA-tagged Ipr1 ΔcNLS1/2-R424A-K429A mutant (from UniProt Q8BVK9 1-445)”, the binding entry in assay [1] is listed as “no binding”.

Turning to “HA-tagged Ipr1-ΔcNLS1/2 mutant (from UniProt Q8BVK9 1-445)”, in assay [1], the binding entry is on record as “binds”.

For “HA-tagged full-length Ipr1 (from UniProt Q8BVK9 1-445)”, the binding result in assay [2] is “binds”.
